Earlier results, collected in patent US20230029485A1 (priority 2021, published 2023).
At least one compound was matched to its structure with a doubt left.

Amino acid sequences for entries named in this document (tags omitted).
UniProt P10415, whole entry F104C: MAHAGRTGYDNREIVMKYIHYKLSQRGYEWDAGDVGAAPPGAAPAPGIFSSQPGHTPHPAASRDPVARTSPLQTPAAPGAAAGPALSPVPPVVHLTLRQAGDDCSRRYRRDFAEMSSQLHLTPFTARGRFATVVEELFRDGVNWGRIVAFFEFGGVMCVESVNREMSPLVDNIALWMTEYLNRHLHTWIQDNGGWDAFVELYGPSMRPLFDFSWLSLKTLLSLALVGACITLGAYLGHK

Tests used:
SARS-CoV-2 = conditions: in vivo
BCL-2 F104C = BCL-2 F104C (Homo sapiens, UniProt P10415, F104C); conditions: variant F104C

For `CCC(CC)COC(=O)[C@H](C)N[P@](=O)(OC[C@H]1O[C@@](C#N)(c2ccc3c(N)ncnn23)[C@H](O)[C@@H]1O)Oc1ccccc1` [RDV, Remdesivir], the “clinical improvements, share of patients” value (SARS-CoV-2) is given as 67.9%.
In the case of `CC1(C)CCC(CN2CCN(c3ccc(C(=O)NS(=O)(=O)c4ccc(NCC5CCOCC5)c([N+](=O)[O-])c4)c(Oc4cnc5[nH]ccc5c4)c3)CC2)=C(c2ccc(Cl)cc2)C1` [Venetoclax], the Venetoclax resistance (BCL-2 F104C) is listed as “dramatic resistance”.
